Some of these results come from one statement about several compounds together. Some ranges recur; such a range may be that of the whole group of compounds. Square brackets hold non-standard residues; d marks the D form. Peptide text beside a SMILES is read from it.
Columns and labels:
[1] = tested on: CL1 human prostate carcinoma cell line; assay: XTT proliferation (cytotoxicity) assay, CL1; format: cell-based; details: CL1 and LLC vs NIH-3T3, pH 7.4
Experimental: (§1) The CL1 human prostate carcinoma (PC) cell line is an androgen-independent (AI) subclone of LNCaP cell line, which was generated by culturing androgen-dependent (AD) LNCaP cells in charcoal-stripped, […], as described (Patel et al. 2000). 22RV1 human PC cells are AI sub-clones of the AD prostatic adenocarcinoma CWR22 xenograft (Sramkoski et al. 1999). CL1 and 22RV1 (ATCC, USA) were grown in RPMI-1640 supplemented with 10% FCS (Biological Industries, Beit Haemek, Israel). PC3 and DU145 are androgen-insensitive (AI) (non-responsive), invasive human prostate cancer cell lines. NIH-3T3 mouse fibroblast cell lines (ATCC, USA) were grown in DMEM supplemented with 10% BS. Murine Lewis lung carcinoma (LLC) cell lines were also grown in DMEM medium supplemented with 10% fetal calf serum and antibiotics under the same conditions as above.
The anticancer activity of the diastereomers 1, 5 and 11-16, 36-39, 42 and 44 was examined against human CL1 prostate cancer, murine LLC (Lewis lung carcinoma), DU 145 and PC3 cell lines. The cell selectivity of the diastereomeric peptides was also studied by examining their effect on NIH-3T3 normal mouse fibroblasts cell line.
(§2) A 96-well plate (Falcon) was used for the XTT proliferation assay. Cancer cells were grown for 24 hours (day 1) in RPMI-1640 medium (5×10^3, 7×10^3, 1×10^4 and 7×10^3 cells/100 μl for LLC, CL1, 22RVI, DU 145 and PC3, respectively) supplemented with 10% fetal calf serum and antibiotics, at 37° C., in humidified atmosphere at 5% CO2 and 95% air, resulting in growth medium pH of 7.4. […]
(§3) In day 3, XTT reaction solution was prepared by adding to 100 μl aliquots of activation solution (sodium 3′-[1-(phenyl-aminocarbonyl)-3,4-tetrazolium]-bis(4-methoxy-6-nitro) benzene sulfonic acid hydrate and N-methyl dibenzopyrazine methyl sulfate; mixed in a proportion of 50:1) (protected from light and kept in −20° C.), the substrate. […] The optical density was read at wavelength of 450 nm in an ELISA plate reader. Cell viability was determined relative to the control and final results were recorded. […]

22RV1 human PC cells = assay: XTT proliferation (cytotoxicity) assay, 22RV1; format: cell-based; details: 22 RVI, pH 6
Experimental: as §1
as §2, with “7.4. NIH-3T3 fibroblast cells (1×10^4 cells/100 μl) were grown in DMEM medium supplemented with 10% bovine calf serum and antibiotics under the same conditions as described above for the cancerous cells.” for “7.4.”
as §3

Structure (SMILES)	active concentration lower than against NIH-3T3 [1]	potency compared with peptide 1 (22RV1 human PC cells)
CC(C)C[C@H](NC(=O)[C@H](CC(C)C)NC(=O)[C@@H](CCCCN)NC(=O)[C@H](CC(C)C)NC(=O)[C@H](CC(C)C)NC(=O)[C@H](Cc1c[nH]cn1)NC(=O)[C@@H](CCCCN)NC(=O)[C@@H](CC(C)C)NC(=O)[C@H](CC(C)C)NC(=O)[C@@H](CCCCN)NC(=O)[C@H](Cc1c[nH]cn1)NC(=O)[C@H](CC(C)C)NC(=O)[C@@H](CC(C)C)NC(=O)[C@H](Cc1c[nH]cn1)NC(=O)[C@@H](N)CC(C)C)C(N)=O [Peptide 14] (H-LH[dL]LH[dK]L[dL][dK]HLL[dK]LL-NH2)	2-8 fold	significantly more potent
CC(C)C[C@H](NC(=O)[C@H](CC(C)C)NC(=O)[C@@H](Cc1c[nH]cn1)NC(=O)[C@H](CC(C)C)NC(=O)[C@H](CC(C)C)NC(=O)[C@H](Cc1c[nH]cn1)NC(=O)[C@@H](Cc1c[nH]cn1)NC(=O)[C@@H](CC(C)C)NC(=O)[C@H](CC(C)C)NC(=O)[C@@H](CCCCN)NC(=O)[C@H](Cc1c[nH]cn1)NC(=O)[C@H](CC(C)C)NC(=O)[C@@H](CC(C)C)NC(=O)[C@H](Cc1c[nH]cn1)NC(=O)[C@@H](N)CC(C)C)C(N)=O [Peptide 16] (H-LH[dL]LH[dK]L[dL][dH]HLL[dH]LL-NH2)	2-8 fold	significantly more potent
CC(C)C[C@H](NC(=O)[C@H](CC(C)C)NC(=O)[C@@H](CCCCN)NC(=O)[C@H](CC(C)C)NC(=O)[C@H](CC(C)C)NC(=O)[C@H](Cc1c[nH]cn1)NC(=O)[C@@H](CCCCN)NC(=O)[C@@H](CC(C)C)NC(=O)[C@H](CC(C)C)NC(=O)[C@@H](CCCCN)NC(=O)[C@H](Cc1c[nH]cn1)NC(=O)[C@H](CC(C)C)NC(=O)[C@@H](CC(C)C)NC(=O)[C@H](CCCCN)NC(=O)[C@@H](N)CC(C)C)C(N)=O [Peptide 13] (H-LK[dL]LH[dK]L[dL][dK]HLL[dK]LL-NH2)	2-8 fold	significantly more potent
